These are yes or no findings as the source states them, for the method shown. Binding seen in cells or lysates may run through a third protein. Some results given as binding are weak or reduced against the parent protein; the word gives no strength. For some of these results: Where a sequence is shown, tags or fusion partners need not be part of it.
Experiments:
[1] = target: tripartite motif‐containing 25 (TRIM25), endogenous in MIHA cells (human (endogenous in MIHA)) (UniProt Q14258); assay: co-IP; immunoprecipitation from MIHA cells, endogenous proteins
HA‐TRIM25 (HEK293T) = HA‐TRIM25 (HEK293T) (UniProt Q14258); assay: co-IP; HEK293T (293T) cells co‐transfected with HA‐TRIM25 or HA‐△TRIM25 and Flag‐INSIG1, immunoprecipitation
[2] = target: HA‐△TRIM25 (mutant TRIM25 lacking amino acids 401–630) (UniProt Q14258); assay: as above
[3] = target: TRIM25 C‐terminal domain (401‐630aa), HA‐TRIM25 truncated (UniProt Q14258); assay: co-IP; MIHA cells transfected with HA‐TRIM25 truncated plasmids and Flag‐INSIG1, immunoprecipitation

Chains of the proteins cited; added tags and fusions are not shown. Lines headed by an entry give the natural chain unless they say otherwise; changes in a name come on top. Residues count along the entry.
UniProt Q14258: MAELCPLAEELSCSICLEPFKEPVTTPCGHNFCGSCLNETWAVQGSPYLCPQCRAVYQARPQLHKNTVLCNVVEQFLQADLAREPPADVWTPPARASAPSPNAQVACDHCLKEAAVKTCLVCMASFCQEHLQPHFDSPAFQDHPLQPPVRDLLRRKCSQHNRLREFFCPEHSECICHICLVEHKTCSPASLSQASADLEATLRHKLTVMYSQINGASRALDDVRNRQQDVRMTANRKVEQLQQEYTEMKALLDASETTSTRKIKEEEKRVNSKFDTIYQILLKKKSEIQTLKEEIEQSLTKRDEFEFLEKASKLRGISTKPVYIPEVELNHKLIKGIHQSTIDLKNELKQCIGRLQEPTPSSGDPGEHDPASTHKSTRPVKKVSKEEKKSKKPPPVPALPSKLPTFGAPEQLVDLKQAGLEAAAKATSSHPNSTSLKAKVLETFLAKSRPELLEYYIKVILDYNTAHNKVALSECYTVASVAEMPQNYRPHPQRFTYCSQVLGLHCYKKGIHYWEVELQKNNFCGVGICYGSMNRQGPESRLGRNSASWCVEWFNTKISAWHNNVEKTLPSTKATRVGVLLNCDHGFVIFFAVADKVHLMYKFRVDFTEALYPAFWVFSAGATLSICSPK
HA‐△TRIM25 (mutant TRIM25 lacking amino acids 401–630): residues 1-400 of Q14258
TRIM25 C‐terminal domain (401‐630aa), HA‐TRIM25 truncated: residues 401-630 of Q14258

B1: insulin‐induced gene 1 (INSIG1), endogenous in MIHA cells (protein, UniProt O15503 1-277)
chain: MPRLHDHFWSCSCAHSARRRGPPRASAAGLAAKVGEMINVSVSGPSLLAAHGAPDADPAPRGRSAAMSGPEPGSPYPNTWHHRLLQRSLVLFSVGVVLALVLNLLQIQRNVTLFPEEVIATIFSSAWWVPPCCGTAAAVVGLLYPCIDSHLGEPHKFKREWASVMRCIAVFVGINHASAKLDFANNVQLSLTLAALSLGLWWTFDRSRSGLGLGITIAFLATLITQFLVYNGVYQYTSPDFLYIRSWLPCIFFSGGVTVGNIGRQLAMGVPEKPHSD
binding [1]: binds

B2: Flag‐INSIG1 (HEK293T) (protein, UniProt O15503 1-277)
chain: MPRLHDHFWSCSCAHSARRRGPPRASAAGLAAKVGEMINVSVSGPSLLAAHGAPDADPAPRGRSAAMSGPEPGSPYPNTWHHRLLQRSLVLFSVGVVLALVLNLLQIQRNVTLFPEEVIATIFSSAWWVPPCCGTAAAVVGLLYPCIDSHLGEPHKFKREWASVMRCIAVFVGINHASAKLDFANNVQLSLTLAALSLGLWWTFDRSRSGLGLGITIAFLATLITQFLVYNGVYQYTSPDFLYIRSWLPCIFFSGGVTVGNIGRQLAMGVPEKPHSD
binding (HA‐TRIM25 (HEK293T)): binds
binding [2]: no binding

B3: Flag‐INSIG1 (MIHA) (protein, UniProt O15503 1-277)
chain: MPRLHDHFWSCSCAHSARRRGPPRASAAGLAAKVGEMINVSVSGPSLLAAHGAPDADPAPRGRSAAMSGPEPGSPYPNTWHHRLLQRSLVLFSVGVVLALVLNLLQIQRNVTLFPEEVIATIFSSAWWVPPCCGTAAAVVGLLYPCIDSHLGEPHKFKREWASVMRCIAVFVGINHASAKLDFANNVQLSLTLAALSLGLWWTFDRSRSGLGLGITIAFLATLITQFLVYNGVYQYTSPDFLYIRSWLPCIFFSGGVTVGNIGRQLAMGVPEKPHSD
binding [3]: binds

Reference: paper PMC12140344
